Reference: PubChem BioAssay AID662 (National Center for Advancing Translational Sciences (NCATS), 2007)
Several values for one entry are separate records, joined by “and”; a condition that tells them apart may be missing. Equal entries are not always repeated. Some of the results follow. These are further read-outs of the screen, such as a control signal, another cell line or another target. No call is given for them. Most of these compounds were active or inconclusive in the main read-out, so they are no random draw. Words in brackets tell the shape of the fitted curve; partial curves, single points and poor fits give uncertain potencies.

Test: Cell signaling CRE-BLA (Fsk stim)
Details: CHO CRE-bla reporter (cAMP response element driving beta-lactamase), forskolin EC10, beta-lactamase ratio; measured here: 460 nm blue channel
How it was run: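 CRE-bla CHO cells stimulated with EC10 NKH 477 (water-soluble forskolin) and compound titrations, 3 h at 37C; beta-lactamase read with CCF4 after 2 h at room temperature. Activity from 460/530 nm emission ratio, AC50 values for positive or negative modulation.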

Row | Compound | AC50
1 | Cc1ccc(-n2nnnc2SCC(=O)Nc2c(C)n(C)n(-c3ccccc3)c2=O)cc1 | 25.1 µM [rising, single point]
2 | COc1ccc(N2C(=O)CC(Sc3ncn[nH]3)C2=O)c(OC)c1 (stereo not drawn) | 1 µM [falling, full curve]
3 | Cc1cccc(CSc2ncnc3nc[nH]c23)c1 | 5.01 µM [falling, full curve, poor fit]
4 | CSc1ccc(/C=N/n2c(C)cc(C)cc2=O)cc1 | 0.316 µM [rising, full curve]
5 | c1ccc(CN2C3=NCCCN3c3ccccc32)cc1 | 25.1 µM [falling, single point]
6 | CCCCn1cc(C(C)(C)C)c(C#N)c1NC(C)=O | 3.98 µM [rising, single point]
7 | Cc1ccc(-n2c(SCC(=O)NCC3CCCO3)nc3n[nH]c(C)c3c2=N)cc1Cl (stereo not drawn) | 12.6 µM [rising, single point]
8 | CS(=O)(=O)c1nc(-c2ccccc2)cc(C(F)(F)F)n1 | 1.58 µM [falling, partial curve]
9 | Oc1ccccc1-c1nnc(-c2ccc(C(F)(F)F)cc2)o1 | 0.126 µM [falling, full curve]
10 | O=C(NCCN1CCNCC1)c1ccccn1 | 0.00631 µM [falling, full curve, poor fit]
11 | Cc1ccc(S(=O)(=O)N2CCOCC2)cc1C(=O)Nc1nc(-c2cccnc2)cs1 | 25.1 µM [rising, single point]
12 | CCSc1nnc(NC(=O)C2Cc3ccccc3CN2C(=O)c2ccco2)s1 (stereo not drawn) | 2 µM [falling, full curve]
13 | Cc1cc(NC(=O)c2cc(-c3cccs3)nc3ccccc23)no1 | 10 µM [rising, partial curve]
14 | CC(=O)N1c2ccc(S(=O)(=O)CCC(=O)O)cc2CC1C (stereo not drawn) | 0.2 µM [falling, full curve]
15 | CCOC(=O)c1cc(-c2ccncc2)nc2c1c(C)nn2-c1ccccn1 | 0.631 µM [rising, full curve]
16 | O=C(Nc1ccc(Cl)cc1C(=O)Nc1ccccn1)c1ccco1 | 10 µM [rising, partial curve]
17 | O=C(CSc1ncccc1-c1nc2ccccc2[nH]1)NCc1ccco1 | 6.31 µM [falling, partial curve]
18 | Cc1ccc(-n2nc(C)c3cc(C(=O)O)sc32)cc1 | 7.94 µM [rising, partial curve]
19 | COC(=O)c1cc(Br)c(=O)n(CCC2=CCCCC2)c1 | 20 µM [rising, single point]
20 | CCCSc1nc2c(cnn2-c2ccc(C)cc2)c(=O)[nH]1 | 5.01 µM [rising, partial curve]
21 | COc1cc(-c2nc(S(=O)(=O)c3ccc(C)cc3)c(N(C)C)o2)cc(OC)c1OC | 0.794 µM [rising, full curve]
22 | CCOC(=O)CNc1nc(-c2ccncc2)nc2ccccc12 | 5.01 µM [rising, partial curve]
23 | Cc1cccc(CCNC(=O)CCc2nc(-c3ccccc3F)no2)c1 | 0.00501 µM [falling, full curve, poor fit]

Exported with tabs: entries from further up.
Row	Compound	AC50
8	CS(=O)(=O)c1nc(-c2ccccc2)cc(C(F)(F)F)n1	1.58 µM [falling, partial curve]
9	Oc1ccccc1-c1nnc(-c2ccc(C(F)(F)F)cc2)o1	0.126 µM [falling, full curve]
16	O=C(Nc1ccc(Cl)cc1C(=O)Nc1ccccn1)c1ccco1	10 µM [rising, partial curve]
22	CCOC(=O)CNc1nc(-c2ccncc2)nc2ccccc12	5.01 µM [rising, partial curve]
23	Cc1cccc(CCNC(=O)CCc2nc(-c3ccccc3F)no2)c1	0.00501 µM [falling, full curve, poor fit]

(listing goes on)

Row | Compound | AC50
24 | Cc1ccc2nc(Nc3ccc4[nH]c(=O)[nH]c4c3)c(-n3nc(C)cc3C)nc2c1 | 25.1 µM [rising, single point]
25 | O=C(CN1C(=O)NC2(CCCCCC2)C1=O)c1ccc2c(c1)OCCO2 | 5.01 µM [falling, single point]
26 | C(=N\n1cnnc1)/c1cn(-c2cccs2)nc1-c1ccccc1 | 12.6 µM [rising, single point]
27 | O=C1CCCN1CCCNc1ncnc2c1[nH]c1ccccc12 | 25.1 µM [rising, single point]
28 | O=C(NCC1CCCO1)NC1(C(F)(F)F)Oc2ccccc2O1 (stereo not drawn) | 10 µM [falling, partial curve]
29 | CSc1oc(-c2ccco2)nc1S(=O)(=O)c1ccc(Br)cc1 | 10 µM [rising, partial curve]
30 | COc1ccc(N/C(N)=N/c2nc(CSc3ccc(C)cc3)cc(=O)[nH]2)cc1 | 0.398 µM [rising, full curve]
31 | CCOC(=O)C1CCCN(C(=O)c2cnn3c(C(F)F)cc(-c4ccc(C)cc4)nc23)C1 (stereo not drawn) | 12.6 µM [rising, partial curve]
32 | CCn1nnnc1NCc1cccn1C | 10 µM [rising, single point]
33 | COC(=O)c1sc(N2C(=O)C(O)=C(C(=O)c3ccc(C)o3)C2c2ccc(F)cc2)nc1C (stereo not drawn) | 3.16 µM [rising, single point]
34 | C=CCOc1cccc(C2C(C(=O)c3ccc(C)o3)=C(O)C(=O)N2c2nccs2)c1 (stereo not drawn) | 12.6 µM [rising, single point]
35 | CCOC(=O)NCCc1c(C)nc2c(c(C)nn2C(C)(C)C)c1C | 6.31 µM [rising, partial curve, poor fit]
36 | COc1cccc(-c2cc(NCc3ccccc3)ncn2)c1 | 7.94 µM [rising, partial curve]
37 | Cc1cc(NC(=O)CSc2nc(CCC3CCCC3)nc3ccccc23)no1 | 0.126 µM [falling, single point]
38 | CCOC(=O)C1CCN(C(=O)COc2cc(C)c(Br)c(C)c2)CC1 | 10 µM [rising, partial curve]
39 | CCn1nc(C(=O)OCC(=O)N2c3ccccc3CC2C)c2ccccc2c1=O (stereo not drawn) | 0.00316 µM [falling, full curve, poor fit]
40 | CCn1c(=O)cc(SCC(=O)N2CCCCC2)c2ccccc21 | 10 µM [rising, partial curve, poor fit]
41 | O=c1c(-c2ccc(O)cc2)coc2cc(O)ccc12 | 31.6 µM [falling, partial curve, poor fit]
42 | O=C(O)CCn1cnc2ccccc2c1=O | 0.631 µM [falling, single point]
43 | COc1cc2ccccc2cc1C(=O)Nc1cccnc1 | 7.94 µM [rising, partial curve]
44 | CN1CCCN(Cc2ccccc2C(F)(F)F)CC1 | 0.398 µM [rising, full curve]
45 | CC(C)OC(=O)CSc1nc2ncc(Cl)cc2[nH]1 | 3.98 µM [rising, single point]
46 | O=C1CC(c2ccccc2)CN1C(=O)c1ccccc1 (stereo not drawn) | 0.01 µM [falling, full curve]

Row | Compound | AC50
47 | CCCCc1c(O)nc(SCC(=O)c2ccccc2)[nH]c1=O | 31.6 µM [falling, single point]
48 | Cc1nn(Cc2ccccc2Cl)c(C)c1C(=O)N1CCN(c2ccccc2)CC1 | 0.251 µM [falling, partial curve]
49 | COc1cc(C(=O)Nc2nnc(C)s2)cc(OC)c1OC | 10 µM [rising, single point]
50 | CCOC(=O)c1c(NC(=O)CSc2nnc(C)c(=O)[nH]2)sc2c1CCC2 | 12.6 µM [rising, partial curve]
51 | CC(C(=O)NC1=NCCS1)(C(F)(F)F)C(F)(F)F | 12.6 µM [rising, single point]
52 | CC(NC(=O)COC(=O)CCNC(=O)c1ccco1)C12CC3CC(CC(C3)C1)C2 (stereo not drawn) | 2 µM [rising, partial curve, poor fit]
53 | CSc1ccccc1C(=O)Nc1cccc(N(C)S(C)(=O)=O)c1 | 0.00398 µM [falling, full curve, poor fit]
54 | O=c1[nH]c2ccc(S(=O)(=O)N3CCN(Cc4ccccc4)CC3)cc2[nH]c1=O | 0.00398 µM [falling, full curve, poor fit]
55 | CCOc1ccc(N2CC(C(=O)OC)CC2=O)cc1 (stereo not drawn) | 0.00316 µM [falling, full curve, poor fit]
56 | NC(=O)C1CCN(C(=O)C2c3ccccc3C(=O)N3CCc4ccccc4C23)CC1 (stereo not drawn) | 0.0398 µM [falling, full curve, poor fit]
57 | O=C(NCc1cccnc1)C(C(=O)c1ccc(F)cc1)n1ccccc1=O (stereo not drawn) | 0.1 µM [falling, full curve, poor fit]
58 | COc1ccc(Oc2ncc3nc(-c4ccc(OC)cc4)c(=O)n(C4CC4)c3n2)cc1 | 10 µM [rising, partial curve]
59 | COc1c(C)c2c(c(O)c1C/C=C(\C)CCC(=O)O)C(=O)OC2 | 126 nM [falling, full curve, poor fit] and 10 µM [falling, single point]
60 | Cc1noc(C)c1COC(=O)Cn1c(C)nc2ccccc21 | 3.98 µM [falling, partial curve]
61 | CCOC(=O)NCc1cc(-c2nn(C)c(=O)c3ccccc23)ccc1C | 3.98 µM [rising, partial curve]
62 | CCn1c2c(c3ccc(OC)cc31)CCCC2=O | 12.6 µM [rising, single point]
63 | c1ccc2c(c1)[nH]c1c(N3CCCC3)ncnc12 | 15.8 µM [rising, partial curve]
64 | C[C@H](Oc1ccc(Oc2cnc3ccc(Cl)cc3n2)cc1)C(=O)O | 2.51 µM [falling, single point]
65 | CC(C)c1ccc(S(=O)(=O)N2CCN(CC(=O)Nc3ccc4c(c3)OCO4)CC2)cc1 | 5.01 µM [rising, full curve, poor fit]
66 | CCOC(=O)C1=C(C)NC(C)=C(C(=O)OCC)C1C(=O)OCC(=O)N1CCc2ccccc2C1 | 0.158 µM [falling, full curve, poor fit]
67 | COCCn1c(=O)c(C)nc2cnc(N3CCOCC3)nc21 | 15.8 µM [rising, partial curve]
68 | CCOc1nc(-c2ccc(OC)cc2)ccc1-c1noc(-c2ccncc2)n1 | 10 µM [rising, single point]
